Numbering of substitutions follows the chain as printed. No constants are given. Whether binding was seen depends on the method and setting. Binding seen in cells or lysates may run through a third protein. Some entries that bind do so weakly or less than the wild type. For some assays here: Sequences can lack the tags named with a protein.
Tests used:
[1] = target: T1, GFP tagged mutant MIF (S91A) (UniProt P14174); assay: co-IP; RCTE cells transfected with GFP tagged wild type or mutant (S91D, S91A) MIF; immunoprecipitation on protein A agarose, washed with lysis buffer with additional 300 mM NaCl, blot for 14-3-3ζ; also with lambda phosphatase treatment (less binding of the wild type)
T1 sequence: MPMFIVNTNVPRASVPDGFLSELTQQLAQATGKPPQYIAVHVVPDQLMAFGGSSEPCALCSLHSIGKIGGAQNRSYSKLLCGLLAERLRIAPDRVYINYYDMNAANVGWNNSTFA

By UniProt entry, the sequences of proteins in these tests, tags left out.
UniProt P63104: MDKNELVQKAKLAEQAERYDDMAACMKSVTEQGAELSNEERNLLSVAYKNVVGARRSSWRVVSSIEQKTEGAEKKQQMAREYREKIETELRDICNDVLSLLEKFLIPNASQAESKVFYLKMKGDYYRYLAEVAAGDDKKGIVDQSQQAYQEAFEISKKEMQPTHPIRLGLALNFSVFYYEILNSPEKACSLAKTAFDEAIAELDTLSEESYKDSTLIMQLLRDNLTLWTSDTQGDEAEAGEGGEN

[2] = target: T2, GFP tagged mutant MIF (S91D) (UniProt P14174); assay: as above
T2 sequence: T1 sequence with A91D

GFP tagged wild type MIF = target: T3, GFP tagged wild type MIF (UniProt P14174); assay: as above
T3 sequence: T1 sequence with A91S

[3] = target: T4, Macrophage migration inhibitory factor (MIF) (human (endogenous in RCTE)) (UniProt P14174); assay: co-IP; endogenous proteins, RCTE cell lysates; anti-MIF or anti-PIP4K2a antibody on protein A agarose, 4 °C overnight, washed with lysis buffer with additional 300 mM NaCl, Western blot; also after PIP4K2a siRNA (less MIF with 14-3-3ζ) and GFP-PIP4K2a overexpression (more)
T4 sequence: T1 sequence with A91S

[4] = target: T5, phosphatidylinositol-5-phosphate 4-kinase type 2 alpha (PIP4K2a) (human (endogenous in RCTE)) (UniProt P48426); assay: as above
T5 sequence: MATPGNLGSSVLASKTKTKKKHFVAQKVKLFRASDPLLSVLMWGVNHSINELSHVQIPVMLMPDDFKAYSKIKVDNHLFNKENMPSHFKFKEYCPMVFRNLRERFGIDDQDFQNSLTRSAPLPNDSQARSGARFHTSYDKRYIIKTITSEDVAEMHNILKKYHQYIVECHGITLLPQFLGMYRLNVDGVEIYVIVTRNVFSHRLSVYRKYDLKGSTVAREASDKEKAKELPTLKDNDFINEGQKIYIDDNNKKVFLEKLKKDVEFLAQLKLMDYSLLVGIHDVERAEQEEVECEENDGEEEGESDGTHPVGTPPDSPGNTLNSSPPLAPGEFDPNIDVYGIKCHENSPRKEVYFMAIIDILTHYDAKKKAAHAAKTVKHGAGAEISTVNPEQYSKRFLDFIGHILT

Question: With “14-3-3ζ (YWHAZ) (from UniProt P63104 1-245)” as the substance, how does the binding [1] read?
Answer: binds weakly

Question: What about the binding [2] of the same substance?
Answer: binds

Question: What about the binding (GFP tagged wild type MIF) of the same substance?
Answer: binds

Question: What about the binding [3] of the same substance?
Answer: binds

Question: And the binding [4]?
Answer: binds
